Results reported in patent US20040096894A1, “Crystal structures of P- selectin, P- and E-selectin complexes, and uses thereof” (priority 2000, published 2004).
No constants are given. Whether binding was seen depends on the method and setting. Binding can be weak; no strength is given.

Sequences of proteins named here, by UniProt entry; tags and fusion partners are left off. A change or cut given only in a name is not applied to a line headed by its entry.
UniProt Q14242: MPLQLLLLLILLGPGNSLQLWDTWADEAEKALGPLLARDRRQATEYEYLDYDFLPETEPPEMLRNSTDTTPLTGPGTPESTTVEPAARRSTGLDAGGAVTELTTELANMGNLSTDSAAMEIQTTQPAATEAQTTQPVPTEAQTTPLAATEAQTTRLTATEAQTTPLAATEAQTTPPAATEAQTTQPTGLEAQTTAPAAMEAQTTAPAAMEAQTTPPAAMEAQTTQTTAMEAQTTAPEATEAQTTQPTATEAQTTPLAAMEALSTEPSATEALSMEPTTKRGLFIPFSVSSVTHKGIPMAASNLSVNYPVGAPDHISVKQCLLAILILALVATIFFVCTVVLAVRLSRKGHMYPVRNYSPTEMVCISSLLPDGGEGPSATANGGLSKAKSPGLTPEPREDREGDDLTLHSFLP

Biological target: sPSGL, soluble recombinant PSGL-1 consisting of the entire dimeric extracellular domain (UniProt Q14242)
Assay: BIAcore SPR; LE domains injected over immobilized sPSGL

binding: binds
B1: E-selectin lectin and EGF-like (LE) domains, monomeric (receptor, UniProt P16581 22-178, looked up)
chain: WSYNTSTEAMTYDEASAYCQQRYTHLVAIQNKEEIEYLNSILSYSPSYYWIGIRKVNNVWVWVGTQKPLTEEAKNWAPGEPNNRQKDEDCVEIYIKREKDVGMWNDERCSKKKLALCYTAACTNTSCSGHGECVETINNYTCKCDPGFSGLKCEQIV
modifications: glycosylated and N-glycanase-deglycosylated forms both tested
